Consider three substances from paper PMC6321010, “Interaction of the GTPase Elongation Factor Like-1 with the Shwachman-Diamond Syndrome Protein and Its Missense Mutations” (International Journal of Molecular Sciences, 2018).

Results are given in words; binding and its absence hold for the method and conditions named. A result given as binding can be weak or reduced; the word gives no strength.

The assay has as its target T1, yeast Sdo1, full-length, two-hybrid bait (yeast (S. cerevisiae)) (UniProt Q07953).
T1 sequence: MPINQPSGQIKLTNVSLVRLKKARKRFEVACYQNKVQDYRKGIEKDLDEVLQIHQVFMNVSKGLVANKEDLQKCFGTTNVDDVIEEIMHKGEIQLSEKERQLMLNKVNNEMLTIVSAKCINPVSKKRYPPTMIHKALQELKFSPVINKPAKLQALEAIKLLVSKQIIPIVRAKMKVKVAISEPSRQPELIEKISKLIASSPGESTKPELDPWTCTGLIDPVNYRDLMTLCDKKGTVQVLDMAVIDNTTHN
The assay is described as follows: two-hybrid; yeast two-hybrid; Sdo1 full-length or domains 2-3 as bait, domains of yeast EFL1 as the other fusion.
As to “yeast EFL1 domains I-II, two-hybrid fusion (domain or fragment)”, the binding result is “binds”.
Consider “yeast EFL1 domain I, two-hybrid fusion (domain or fragment)”, for which the binding result is listed as “no binding”.
The value for “yeast EFL1 domain II, two-hybrid fusion (domain or fragment)” was “binds”.
